Measured values from patent publication US7754743B2, “Heteroarylcarbamoylbenzene derivatives” (Banyu Pharmaceutical Co., Ltd., priority 2003, dated 2010).

Target: T1, recombinant human liver GK (Homo sapiens, UniProt P35557)
T1 construct: made in house; host or cells: E. coli
T1 sequence (P35557 1-466 isoform P35557-2): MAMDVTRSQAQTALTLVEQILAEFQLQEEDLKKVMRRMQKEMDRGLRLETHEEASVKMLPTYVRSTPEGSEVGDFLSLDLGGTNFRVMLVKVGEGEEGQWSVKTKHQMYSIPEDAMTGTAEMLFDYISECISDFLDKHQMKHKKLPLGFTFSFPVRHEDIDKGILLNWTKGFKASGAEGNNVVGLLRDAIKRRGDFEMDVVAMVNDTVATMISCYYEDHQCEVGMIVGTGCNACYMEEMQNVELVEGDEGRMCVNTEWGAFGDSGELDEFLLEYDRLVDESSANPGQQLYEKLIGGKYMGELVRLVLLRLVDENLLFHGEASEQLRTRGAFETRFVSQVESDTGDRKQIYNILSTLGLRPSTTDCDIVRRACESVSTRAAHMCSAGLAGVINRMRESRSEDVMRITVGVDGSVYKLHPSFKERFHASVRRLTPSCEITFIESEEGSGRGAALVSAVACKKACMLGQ
Assay: Glucokinase (GK) activation assay, G6PDH-coupled thio-NADH absorbance at 405 nm
Assay type: biochemical
Parameters: dose or concentration left out as unconfirmed
Experimental: The glucokinase activity is the degree of activation of glucokinase, as determined not by direct measurement of glucose-6-phosphate, but by measurement of the amount of thio-NADH produced upon production of phosphogluconolactone from glucose-6-phosphate by the reporter enzyme glucose-6-phosphate dehydrogenase.
The recombinant human liver GK used in this assay was expressed in E. coli as FLAG fusion protein, and it was purified by […] M2 AFFINITY GEL (Sigma).
The assay was carried out using a flat-bottomed 96-well plate at 30° C. A 69 μl portion of assay buffer (25 mM Hepes Buffer: pH=7.2, 2 mM MgCl2, 1 mM ATP, 0.5 mM TNAD, 1 mM dithiothreitol) was dispensed, and either a DMSO solution of the compound or 1 μl of DMSO as a control was added. Next, 20 μl of an enzyme mixture (FLAG-GK, 20 U/ml G6PDH) precooled in ice bath was dispensed, and then 10 μl of 25 mM glucose was added as substrate and reaction was initiated (final glucose concentration=2.5 mM).
FLAG-GK was added to produce an absorbance increment of from 0.05 to 0.1 after 5 minutes in the presence of 1% DMSO.
The OD values were measured at each concentration of the evaluated compound, using the OD value of the DMSO control as 100%. The Emax (%) and EC50 (μM) values were calculated from the OD value at each concentration, and used as indices of the GK activating power of the compounds.

CC(CO)Oc1cc(Oc2ccc(S(C)(=O)=O)cc2)cc(C(=O)Nc2nccs2)c1 (stereo not shown) [Production Example 2, 5-(2-hydroxy-1-methyl-ethoxy)-3-(4-methanesulfonylphenoxy)-N-thiazol-2-yl-benzamide]
Emax: 844%
